# Measured values reported in patent US20220002432A1.
# No constants are given. Whether binding was seen depends on the method and setting. Some binding calls cover weakened binding; strength is not graded here.
# T1: Rhesus-ICAM1 (rhesus) (UniProt Q5NKV6)
# T1 sequence (looked up): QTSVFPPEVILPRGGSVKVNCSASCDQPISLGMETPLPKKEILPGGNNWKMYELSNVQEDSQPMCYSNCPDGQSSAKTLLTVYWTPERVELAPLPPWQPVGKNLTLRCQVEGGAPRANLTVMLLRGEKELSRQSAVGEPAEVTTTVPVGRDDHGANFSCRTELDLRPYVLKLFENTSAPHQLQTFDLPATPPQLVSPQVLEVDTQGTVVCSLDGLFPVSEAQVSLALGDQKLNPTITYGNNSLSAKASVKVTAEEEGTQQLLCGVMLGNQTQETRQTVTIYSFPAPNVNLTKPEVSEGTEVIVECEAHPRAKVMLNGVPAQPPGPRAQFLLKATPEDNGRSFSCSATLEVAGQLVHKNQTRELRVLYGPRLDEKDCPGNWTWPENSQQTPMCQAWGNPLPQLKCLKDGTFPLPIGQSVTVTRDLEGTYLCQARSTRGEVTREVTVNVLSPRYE
# Biological target: T1, Rhesus-ICAM1 (rhesus)
# Test: ELISA: plate coated with 1 ug/ml recombinant rhesus ICAM1 ECD, serially diluted antibody, OD450
row,Binder,binding
1,"8E5 (antibody, human IgG1, kappa, V domains shown) VH: QSLEESGGRLVTPGTPLTLTCTVSGFSLSNYAMNWVRQAPGKGLEWIGYISTRGSAYYASWAKGRFTISKTSTTVDLKMTSPTTEDTATYFCARGDLVGGGYIRGSFDPWGPGTLVTVSS VL: AQVLTQTPSPVSAAVGGTVTINCQSSQSVVSDKLLSWFQQKPGQPPKLLIYGASTLASGVPSRFKGSGSGTQFTLTISDVQSDDAATYYCAGAYSTDSDIRAFGGGTEVVVKR",binds
2,"11F2 (antibody, human IgG1, kappa, V domains shown) VH: QSVEESGGGLVKPGGTLTLTCTVSGFSLSSHAMGWVRQAPGKGLEYIGIIGSSDRTYYASWAKGRFTISKTSTTVDLKITSPTTEDTATYFCVRDPYDSYDDGYRLWGPGTLVTVSS VL: AYDMTQTPASVEVAVGGTVTIKCQASQSIYRYLSWYQKKPGQRPKFLIYDASKLASGVPSRFEGSGSGTEFTLTISGAQSDDAATYYCQQAYSSGSIDNAFGGGTEVVVKR",binds
3,"6G8 (antibody, human IgG1, kappa, V domains shown) VH: QSVEESGGGLVKPGGTLTLTCTVSGFSLSSYAMGWVRQAPGKGLEYIGIIGSSGSTYYATWAKGRFTISKTSTTVDLKITSPTTEDTATYFCVRDPYDSYDAAYRLWGPGTLVTVSS VL: AYDMSQTPASVEVAVGGTVTIKCQASQSIYSYLSWYQQKPGQRPKLLIYDASKLASGVPSRFTGSGSGTEFTLTISGVQSDDAATYYCQQAYSSSNVDNVFGGGTEVVVKR",binds
4,"8B12 (antibody, human IgG1, kappa, V domains shown) VH: QSVEESGGGLVKPGGTLTLTCTVSGFSLSTHAMGWVRQAPGKGLEYIGIIGSSDRTYYASWAKGRFTISKTSTTVDLKITSPTTEDTATYFCVRDPYDSFDDGYRLWGPGTLVTVSS VL: AYDMTQTPASVEVAVGGTVTIKCQASQSIYSYLSWYQQKPGQRPKFLIYDASKVASGVPSRFKGSGSGTEFTLTISAVQSDDAATYYCQQAYSSSNVDNAFGGGTEVMVKR",binds
5,"2E3 (antibody, human IgG1, kappa, V domains shown) VH: QSVEESGGGLVKPGGTLTLTCTVSGFSLSSYAMGWVRQAPGKGLEYIGIIGSSGSTYYASWAKGRFTISKTSTTVDLKITSPTTEDTATYFCVRDPYDSFGDGYRLWGPGTLVTVSS VL: AYDMTQTPASVEVAVGGTVTIKCQASENIYRYLLWYQQKLGQRPSLLIYDASKLASGVPSRFKGSGSGTEFTLTISGVQSDDAATYYCQQAYSSSNVDNAFGGGTEVVVKR",binds
6,"3D8 (antibody, human IgG1, kappa, V domains shown) VH: QSLEESGGDLVKPGASLTLTCTASGFSFSSSYWMCWVRQAPGKGLEWIACIDGGSAGYNYYATWAKGRFTISKTSSTTVTLQMTSLTAADRATYFCARGPGSSYNLWGPGTLVTVSS VL: DIVMTQTPASVEAAVGGTVTIKCQASQSISSYLSWYQQKPGQPPKLLIYRASTLASGVPSRFKGSGSGTEFTLTISDLESADAATYYCQSYVFGSSRSYDNAFGGGTEVVVKR",binds
7,"5B12 (antibody, human IgG1, kappa, V domains shown) VH: QSLEESGGRLVTPGTPLTLTCTVSGFSLSSYGMSWVRQAPGKGLEYIGWISFSGSAYYANWAKGRFTISKTSTTVDLKITSPTTEDTATYFCARGGDYGGSTYILNLWGPGTLVTVSS VL: AFELTQTPSSVEAAVGGTVTIKCQASESIDSYLSWYQQKPGQPPKLLIYAASTLASGVSSRFKGSGSGTEFTLTISDLESADAATYYCQSYSGTITTSGGAFGGGTEVVVKR",binds
8,"10B8 (antibody, human IgG1, kappa, V domains shown) VH: QSLEESGGRLVTPGGSLTLTCTVSGFSLSSYGMSWVRQAPGKGLEYIGWISFSGSAYYANWAKGRFTISKTSTTVDLKITSPTTEDTATYFCARGGDYGGSTYILNLWGPGTLVTVSS VL: AFELTQTPSSVEAAVGGTVTIKCQASESINSYLSWYQQKPGQPPKLLIYAASTLASGVSSRFKGSGSGTEFTLTISDLESADAATYYCQSYSGTISTSGGAFGGGTEVVVKR",binds
9,"8H1 (antibody, human IgG1, kappa, V domains shown) VH: QSVEESGGRLVTPGTPLTLTCTASGFSLSNYYMSWVRQAPGKGLEWIGIISDSGSTYYASWAKGRFTISKTSTTVDLKITSPTTEDTATYFCARDWSYDSSSGYYYYDMDLWGPGTLVTVSA VL: GYDMTQTPASVEVAVGGTVTIKCQASQSINSWLAWFQHKPGQPPKRLIYKASTLASGVSSRFKGSGSGTQFTLTISGVESADAATYYCQQGYSRSDGEHVFGGGTEVVVKR",binds
10,"4H5 (antibody, human IgG1, kappa, V domains shown) VH: QSVEESGGRLVTPGTPLTLTCTASGFSLSNYYMSWVRQAPGKGLEWIGIISDSGTTYYASWAKGRFTISKTSTTVDLKITSPTTEDTATYFCARDWSYDSSSGYYYYDMDLWGPGTLVTVSA VL: GYDMTQTPASVEVAVGGTVTIKCQASQSINSWLVWFQHKPGQPPKRLIYKASTLASGVSSRFKGSGSGTHFTLTISGVESADAATYYCQQGYSRSDGEHVFGGGTEVVVKR",binds

# Next, values leading:
row,binding,Binder
1,binds,"14B3 (antibody, human IgG1, kappa, V domains shown) VH: QSLEESGGDLVKPGASLTLTCTASGFSSSSGYYICWVRQAPGKGLEWIACIGAGSGAAYYASWAKGRFTMSKTSSTTVTLQMTSLTAADTATYFCARGGFVVGGGYGGYCFNLWGPGTLVTVSS VL: AQVLTQTASSVSATVGGTVTISCQSSESVDVNNLAWYQQKPGQPPKLLIYSASTLASGVPSRFKGSGSGTQFTLTVSDLESADAATYYCAGGYSGNIFAFGGGTAVVVKR"
2,binds,"16E4 (antibody, human IgG1, kappa, V domains shown) VH: QSVEESGGRLVTPGTPLTLTCTVSGFSLSSHAMGWVRQAPGKGLQYIGIIGSSGSTYYASWAKGRFTISKTSTTVDLRLTSPTTEDTATYFCVRDPYDSFGDAYRLWGPGTLVTVSS VL: AYDMTQTPASVEVAVGGTVTIKCQASQSIYSYCSWYQQKPGQRPKFLIYDASKLASGVPSRFKGSGSGTEFTLTISGMQSDDAATYYCQQAYSSSNVDNAFGGGTEVVVKR"
3,binds,"Anti-ICAM1 G12 (antibody, human IgG1, lambda, V domains shown) VH: QVQLQESGGGLVQPGGSLRLSCAASGFTFSSYAMSWVRQAPGKGLEWVSAISGSGGSTYYADSVKGRFTISRDNSKNTLYLQMSSLRAEDTAFYYCANSAYTGGWYDYWGHGTLVTVSS VL: ASELTQDPAVSVALGQTVKITCQGDSLRTYYASWYQQRPGQAPVLVIYGENSRPSGIPDRFSGSSSGNTASLTITGAQAEDEADYYCNSRDSSGNHLRVFGGGTKLTVLG"
4,binds,"15D10 (antibody, human IgG1, kappa, V domains shown) VH: QSVEESGGRLVTPGTPLTLTCTASGFSLNNYYMSWVRQAPGKGLEWIGIISDSDNTYYASWAKGRFTISKTSTTVDLKITSPTTEDTATYFCARDWSLDSSSGYYYYDMDLWGPGTLVTVSA VL: AYDMTQTPASMEVAVGGTVTIKCQASQNIHSWLAWFQQKPGQPPKRLIYKASTLASGVPSRFKGSGSGTQFTLTISGVQSDDAATYYCQQGYSRSDGEHVFGGGTEVVVKR"
5,binds,"14H1 (antibody, human IgG1, kappa, V domains shown) VH: QSVEESGGRLVTPGTPLTLTCTVSGFSLSNYYMSWVRQAPGKGLEWIGIISDSGSTYYASWAKGRFTISKTSTTVDLSITSPTTEDTATYFCARDWSYDSTSGYYYYDMDLWGPGTLVTVSA VL: AYDMTQTPASVEVAVGGTVTIKCQASQSINSWLSWFHQKPGQPPKRLIYKASTLASGVSSRFKGSGSGTQFTLTISGVESADAATYYCQQGYSRSDGEHVFGGGTEVVVKR"
6,binds,"11G7 (antibody, human IgG1, kappa, V domains shown) VH: QSVEESGGRLVTPGTPLTLTCTVSGFSLSDYYMSWVRQAPGKGLEWIGIISDSGSTYYASWAKGRFTISKTSSTTVDLKITSPTTEDTATYFCARDWSYDSSSGYYYYDMDLWGPGTLVTVSA VL: AYDMTQTPASVEVAVGGTVTIKCQASQSINSWLSWFHQKPGQPPKRLIYKASTLASGVSSRFKGSGSGTQFTLTISGVESADAATYYCQQGYSRSDGEHVFGGGTEVVVKR"
